This is an account of results in PubChem BioAssay (NCATS).

The structures appear in SMILES notation. This is one part of the list. Shown are side measurements of this screen, not its main read-out; they come without a call. Compounds called inactive in the main read-out are mostly missing here. The note in brackets gives the kind of curve behind each potency; many fits are weak.

One assay in a line: qHTS Assay for Modulators of Human Peripheral Myelin Protein 22 (PMP22) Expression/Activity (AID 1967). To be noted: Cell-based PMP22 reporter, dual-color luciferase ratio; measured here: green reporter channel AC50; mouse Pmp22 promoter in mouse Schwann cells. The text has this: Charcot-Marie-Tooth-Association [CMTA]
NIH Chemical Genomics Center [NCGC]
Charcot-Marie-Tooth (CMT) disease was first characterized by Jean-Martin Charcot and Pierre Marie in France and, independently, by Howard Henry Tooth in England in 1886. CMT is one of the most common inherited neurological diseases, affecting about 125,000 Americans. […] The most common cause of CMT is known as CMT1A, and is caused by a duplication of the PMP22 gene, leading to over-expression of this protein. PMP22 is a glycosylated intrinsic membrane protein accounting for 2-5% of the myelin protein content and over-expression leads to demyelination and subsequently axonal loss.
A cell-based assay for PMP22 expression modulation was developed by Drs. Ned Mantei and Ueli Suter on behalf of the CMTA. This assay employs a mouse Schwann cell line, MSC80 (Boutry et al., 1992), that was engineered to have the mouse Pmp22 promoter driving expression of a green light-emitting click beetle luciferase (CBG68; Chroma-Gl developed by Promega Corp). A red light-emitting click beetle luciferase (CBR; developed by Promega Corp: CBG68 and CBR differ by only a few amino acids within the D-luciferin binding pocket) under control of the EF-alpha promoter is also stably expressed in the same cells for use as an internal control for nonspecific promoter- or reporter-based effects.
NCGC Assay Protocol Summary:
Cells were seeded in white solid 1536-well plates at between 500-750 cells/4uL in DMEM medium containing 10% FBS, w/o phenol red. After overnight incubation at 37 degree Celsius/5% C02, 23 nL of compounds or DMSO were delivered to each well using a pin tool, followed by 24h-incubation at 37 degree Celsius/5% C02. Then 4 uL Chroma-Glo luminescent substrate mix (Promega) was added to each well. Luminescence was measured on a ViewLux plate reader (Perkin Elmer) using a 540/25 nm filter for green luminescence and a 618/8 nm filter for red luminescence. The green and red luminescent signals were corrected for red and green luminescence filter overlap using filter calibration constants (determined using control cell lines expressing either the green or red CBLuc reporters using the procedures given in Davis et al., 2007). The %Activity was determined from the ratio of corrected green/red luminescent values. Green luminescent and ratio %Activity was determined by normalizing to the signal between of untreated cells (0% Activity)
Keywords: luminescence, PMP22, CMT1A, NCGC, CMTA, qHTS
Concentration-response curves were fitted to the signals arising from the green luminescence (PMP22 promoter driven expression) and the red luminescence (control promoter) as well as the calculated ratio. The concentration-effect curves were then classified based on curve quality (r2), response magnitude and degree of measured activity.
For the molecule `O=c1c(-c2ccc(O)cc2)coc2cc(O)ccc12`, the AC50 was 0.239 µM [falling, partial curve, poor fit].

On to `OC(CCN1CCCCC1)(c1ccccc1)C1CCCCC1` (stereo unspecified), for which the AC50 was 75.7 µM [falling, partial curve].

As for `O=c1c(-c2ccc(O)cc2)coc2cc(O)cc(O)c12`, the half-maximal activity concentration (AC50) is 12 µM [falling, partial curve].

As for `COc1cc(C(=O)OCCCN2CCCN(CCCOC(=O)c3cc(OC)c(OC)c(OC)c3)CC2)cc(OC)c1OC`, the AC50 is 67.5 µM [falling, partial curve].

Consider `COc1cccc(OC)c1OCCNCC1CSc2ccccc2O1` (stereo unspecified), for which the AC50 is 67.5 µM [falling, partial curve].

In the case of `NC(N)=NC(=O)c1nc(Cl)c(N2CCCCCC2)nc1N`, the AC50 is 84.9 µM [falling, single point].

With `COC(=O)C(N)Cc1ccc(Cl)cc1` (stereo unspecified), the AC50 was 84.9 µM [falling, single point].

Regarding `Cc1ccc(O)c(N=Nc2ccccc2)n1`, the AC50 is 3.01 µM [rising, full curve].

As for `COc1cccc(C(=O)NCCN2CCN(c3ccc(Cl)cc3)CC2)c1`, the concentration at half-maximal activity (AC50) is 30.1 µM [falling, partial curve].

Regarding `O[Si](CCCN1CCCCC1)(c1ccc(F)cc1)C1CCCCC1` (stereo unspecified), the AC50 was 42.6 µM [falling, full curve].

For `Cn1cc(C(F)(F)F)nc1-c1ccc(OCC(O)CNCCOc2ccc(O)c(C(N)=O)c2)cc1` (stereo unspecified), the AC50 is 60.1 µM [falling, partial curve].

For `Cc1cccc(C#Cc2ccccc2)n1`, the AC50 is 2.13 µM [rising, full curve].

As to `C[n+]1cc2c3c(ccc2c2ccc4cc5c(cc4c21)OCO5)OCO3`, the AC50 was 23.9 µM [falling, full curve].

Regarding `CN1CCCC1CCOC(C)(c1ccccc1)c1ccc(Cl)cc1` (stereo unspecified), the half-maximal activity concentration (AC50) was 37.9 µM [falling, full curve].

With `COCCCC/C(=N\OCCN)c1ccc(C(F)(F)F)cc1`, the half-maximal activity concentration (AC50) is 33.8 µM [falling, full curve].

With `Cc1cc(N)c2ccccc2[n+]1CCCCCCCCCCCCCC[n+]1c(C)cc(N)c2ccccc21`, the half-maximal activity concentration (AC50) is 3.38 µM [falling, full curve].

With `C[C@H]1O[C@@H](n2cc(F)c(=O)[nH]c2=O)[C@H](O)[C@@H]1O`, the concentration at half-maximal activity (AC50) is 60.1 µM [falling, partial curve].

With `CC(C)(Sc1ccc(CCN(CCCCC2CCCCC2)C(=O)NC2CCCCC2)cc1)C(=O)O`, the AC50 was 67.5 µM [falling, partial curve].

As to `CCCC(=O)NCCc1c2n(c3ccc(OC)cc13)CCCc1ccccc1-2`, the half-maximal activity concentration (AC50) was 84.9 µM [falling, single point].

Still in this assay, the particulars now being: Cell-based PMP22 reporter, dual-color luciferase ratio; measured here: red reporter channel AC50; EF-alpha promoter control reporter in MSC80 mouse Schwann cells.
In the case of `O=c1c(-c2ccc(O)cc2)coc2cc(O)ccc12`, the AC50 is 47.8 µM [falling, partial curve, poor fit].

In the case of `O=C(O)c1ccccc1Nc1cccc(OCc2ccc3ccccc3n2)c1`, the half-maximal activity concentration (AC50) is 1.35 µM [rising, full curve, poor fit].

With `OC(CCN1CCCCC1)(c1ccccc1)C1CCCCC1` (stereo unspecified), the half-maximal activity concentration (AC50) was 95.3 µM [falling, single point].

As for `O=c1c(-c2ccc(O)cc2)coc2cc(O)cc(O)c12`, the concentration at half-maximal activity (AC50) is 16.9 µM [falling, full curve].

Consider `COc1cc(C(=O)OCCCN2CCCN(CCCOC(=O)c3cc(OC)c(OC)c(OC)c3)CC2)cc(OC)c1OC`, for which the AC50 was 84.9 µM [falling, single point].

Take `COc1cccc(OC)c1OCCNCC1CSc2ccccc2O1` (stereo unspecified): the concentration at half-maximal activity (AC50) is 60.1 µM [falling, partial curve].

`CC(C)C[C@H](NC(=O)[C@H](O)[C@H](N)Cc1ccccc1)C(=O)O`: the AC50 is 95.3 µM [falling, single point].

Take `CCCCN1CCC(n2c(=O)[nH]c3ccccc32)CC1`: the AC50 was 95.3 µM [falling, single point].

Regarding `NC(N)=NC(=O)c1nc(Cl)c(N2CCCCCC2)nc1N`, the concentration at half-maximal activity (AC50) is 95.3 µM [falling, single point].

For `COC(=O)C(N)Cc1ccc(Cl)cc1` (stereo unspecified), the AC50 is 84.9 µM [falling, single point].

For the molecule `COc1cccc(C(=O)NCCN2CCN(c3ccc(Cl)cc3)CC2)c1`, the half-maximal activity concentration (AC50) was 47.8 µM [falling, partial curve, poor fit].

Consider `O[Si](CCCN1CCCCC1)(c1ccc(F)cc1)C1CCCCC1` (stereo unspecified), for which the AC50 is 37.9 µM [falling, full curve].

As to `Cc1cn[nH]c1`, the half-maximal activity concentration (AC50) was 37.9 µM [rising, single point].

With `Cn1cc(C(F)(F)F)nc1-c1ccc(OCC(O)CNCCOc2ccc(O)c(C(N)=O)c2)cc1` (stereo unspecified), the AC50 is 75.7 µM [falling, partial curve, poor fit].

As for `Cc1cccc(C#Cc2ccccc2)n1`, the AC50 was 0.478 µM [rising, full curve, poor fit].

With `C[n+]1cc2c3c(ccc2c2ccc4cc5c(cc4c21)OCO5)OCO3`, the AC50 is 9.53 µM [falling, full curve].

In the case of `CN1CCCC1CCOC(C)(c1ccccc1)c1ccc(Cl)cc1` (stereo unspecified), the half-maximal activity concentration (AC50) was 30.1 µM [falling, full curve].

Regarding `COCCCC/C(=N\OCCN)c1ccc(C(F)(F)F)cc1`, the half-maximal activity concentration (AC50) is 30.1 µM [falling, full curve].

As to `Cc1cc(N)c2ccccc2[n+]1CCCCCCCCCCCCCC[n+]1c(C)cc(N)c2ccccc21`, the AC50 was 1.9 µM [falling, full curve].

Turning to `C[C@H]1O[C@@H](n2cc(F)c(=O)[nH]c2=O)[C@H](O)[C@@H]1O`, the AC50 is 42.6 µM [falling, partial curve].

Consider `CC(C)(Sc1ccc(CCN(CCCCC2CCCCC2)C(=O)NC2CCCCC2)cc1)C(=O)O`, for which the concentration at half-maximal activity (AC50) is 84.9 µM [falling, single point].

As for `CCCC(=O)NCCc1c2n(c3ccc(OC)cc13)CCCc1ccccc1-2`, the half-maximal activity concentration (AC50) was 75.7 µM [falling, partial curve].
